Laboratory results from article PMC4029619.

Target: T1, Orbit, Drosophila ortholog of the MT plus-end tracking protein CLASP (endogenous, detected with anti-Orbit antibody) (Drosophila (endogenous in spermatocytes)) (UniProt Q9NBD7)
T1 sequence: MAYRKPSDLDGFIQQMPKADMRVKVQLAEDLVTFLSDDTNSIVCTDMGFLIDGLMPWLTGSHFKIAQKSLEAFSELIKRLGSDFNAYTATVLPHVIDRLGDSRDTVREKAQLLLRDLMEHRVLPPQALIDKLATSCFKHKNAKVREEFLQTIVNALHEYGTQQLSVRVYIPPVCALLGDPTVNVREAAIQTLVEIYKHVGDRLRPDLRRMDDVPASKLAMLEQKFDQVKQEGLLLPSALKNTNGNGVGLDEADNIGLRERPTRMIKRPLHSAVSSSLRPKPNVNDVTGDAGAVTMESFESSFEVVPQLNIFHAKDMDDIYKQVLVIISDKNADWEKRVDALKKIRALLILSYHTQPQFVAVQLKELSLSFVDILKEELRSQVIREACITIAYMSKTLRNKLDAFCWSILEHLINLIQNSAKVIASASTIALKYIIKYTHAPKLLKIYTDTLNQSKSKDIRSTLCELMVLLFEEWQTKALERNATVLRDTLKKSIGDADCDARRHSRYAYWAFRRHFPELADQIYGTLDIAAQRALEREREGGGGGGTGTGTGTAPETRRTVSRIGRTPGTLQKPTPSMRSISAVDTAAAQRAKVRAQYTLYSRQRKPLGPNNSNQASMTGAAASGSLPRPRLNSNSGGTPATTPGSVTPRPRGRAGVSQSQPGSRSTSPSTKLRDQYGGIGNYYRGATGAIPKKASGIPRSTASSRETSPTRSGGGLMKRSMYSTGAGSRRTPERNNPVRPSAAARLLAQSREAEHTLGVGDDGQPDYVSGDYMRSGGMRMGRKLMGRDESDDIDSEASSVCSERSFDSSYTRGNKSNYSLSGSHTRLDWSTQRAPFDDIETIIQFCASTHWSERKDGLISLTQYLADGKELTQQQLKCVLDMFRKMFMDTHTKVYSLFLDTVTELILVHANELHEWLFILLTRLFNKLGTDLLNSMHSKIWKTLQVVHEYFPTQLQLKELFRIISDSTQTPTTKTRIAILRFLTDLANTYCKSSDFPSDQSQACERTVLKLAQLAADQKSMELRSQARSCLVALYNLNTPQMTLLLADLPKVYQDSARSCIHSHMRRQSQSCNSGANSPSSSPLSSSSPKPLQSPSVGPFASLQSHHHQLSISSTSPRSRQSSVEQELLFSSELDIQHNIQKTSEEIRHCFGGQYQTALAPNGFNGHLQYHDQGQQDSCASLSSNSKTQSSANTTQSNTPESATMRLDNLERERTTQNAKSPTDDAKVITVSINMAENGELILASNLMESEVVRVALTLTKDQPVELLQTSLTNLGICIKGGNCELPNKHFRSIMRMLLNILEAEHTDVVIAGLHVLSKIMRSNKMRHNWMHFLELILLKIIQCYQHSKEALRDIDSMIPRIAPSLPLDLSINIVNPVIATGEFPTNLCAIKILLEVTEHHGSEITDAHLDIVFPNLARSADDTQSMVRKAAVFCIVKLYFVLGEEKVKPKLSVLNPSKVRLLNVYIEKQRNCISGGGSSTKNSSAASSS
Assay: proximity ligation; in situ PLA (Duolink kit) on fixed Drosophila primary spermatocytes, late anaphase to telophase I; one partner detected by its own antibody, the GFP-tagged partner by anti-GFP; signal means within 40 nm

**Q.** How did the binding turn out when Pav, Drosophila kinesin-6 protein was run?
**A.** no binding

No constants are given. Whether binding was seen depends on the method and setting. Binding seen in cells or lysates may run through a third protein.
